According to the supplement of paper PMC10849652:
The list shows a part of the results.

By UniProt entry, the sequences of proteins in these tests, tags left out. Where a name states a change or a piece, a line headed by the entry shows the natural chain unless it says otherwise.
UniProt Q5J8M3, whole entry, looked up: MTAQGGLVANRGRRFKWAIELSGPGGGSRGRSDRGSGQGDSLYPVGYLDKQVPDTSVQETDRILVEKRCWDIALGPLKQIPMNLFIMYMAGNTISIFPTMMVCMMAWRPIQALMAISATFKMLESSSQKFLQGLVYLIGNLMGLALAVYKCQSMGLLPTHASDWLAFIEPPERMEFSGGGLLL
UniProt O94919: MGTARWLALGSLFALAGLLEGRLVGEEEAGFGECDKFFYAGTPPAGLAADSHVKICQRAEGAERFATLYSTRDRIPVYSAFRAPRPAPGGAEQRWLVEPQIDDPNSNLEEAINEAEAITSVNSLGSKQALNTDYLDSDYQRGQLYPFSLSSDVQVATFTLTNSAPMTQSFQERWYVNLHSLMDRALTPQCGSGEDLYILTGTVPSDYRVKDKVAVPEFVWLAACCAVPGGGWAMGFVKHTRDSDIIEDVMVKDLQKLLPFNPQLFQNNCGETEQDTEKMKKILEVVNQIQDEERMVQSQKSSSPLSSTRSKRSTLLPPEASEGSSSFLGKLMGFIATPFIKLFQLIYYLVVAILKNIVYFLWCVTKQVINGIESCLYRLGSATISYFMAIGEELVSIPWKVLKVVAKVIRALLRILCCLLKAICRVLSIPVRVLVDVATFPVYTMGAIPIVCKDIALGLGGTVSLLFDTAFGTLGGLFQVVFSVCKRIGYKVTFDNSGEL
UniProt Q13541: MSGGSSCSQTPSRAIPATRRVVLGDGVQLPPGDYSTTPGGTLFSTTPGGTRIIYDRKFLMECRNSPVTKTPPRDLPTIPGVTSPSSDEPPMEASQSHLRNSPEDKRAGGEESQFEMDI
UniProt Q9Y262, whole entry, looked up: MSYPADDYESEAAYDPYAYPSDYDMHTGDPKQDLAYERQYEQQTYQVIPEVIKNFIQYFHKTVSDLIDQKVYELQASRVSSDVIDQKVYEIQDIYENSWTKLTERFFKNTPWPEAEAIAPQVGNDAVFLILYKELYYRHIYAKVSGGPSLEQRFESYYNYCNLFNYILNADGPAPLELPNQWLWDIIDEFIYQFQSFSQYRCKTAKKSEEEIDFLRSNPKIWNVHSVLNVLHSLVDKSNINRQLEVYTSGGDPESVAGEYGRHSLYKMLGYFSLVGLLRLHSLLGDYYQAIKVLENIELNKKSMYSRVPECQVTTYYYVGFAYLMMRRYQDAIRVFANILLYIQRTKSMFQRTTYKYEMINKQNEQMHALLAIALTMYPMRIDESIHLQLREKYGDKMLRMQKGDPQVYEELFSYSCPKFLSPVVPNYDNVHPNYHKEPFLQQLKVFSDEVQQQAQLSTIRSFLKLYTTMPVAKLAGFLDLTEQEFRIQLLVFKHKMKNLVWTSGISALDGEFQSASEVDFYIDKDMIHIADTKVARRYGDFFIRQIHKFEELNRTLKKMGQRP
UniProt Q14232, whole entry, looked up: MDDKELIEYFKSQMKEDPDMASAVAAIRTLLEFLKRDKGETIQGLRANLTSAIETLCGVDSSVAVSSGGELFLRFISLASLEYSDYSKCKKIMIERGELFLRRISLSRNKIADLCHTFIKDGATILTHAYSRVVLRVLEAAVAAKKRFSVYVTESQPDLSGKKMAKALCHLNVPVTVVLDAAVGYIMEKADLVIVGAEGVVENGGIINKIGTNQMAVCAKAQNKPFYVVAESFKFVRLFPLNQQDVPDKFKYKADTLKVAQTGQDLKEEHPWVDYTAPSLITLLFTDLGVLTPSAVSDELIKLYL
UniProt Q9H9T3: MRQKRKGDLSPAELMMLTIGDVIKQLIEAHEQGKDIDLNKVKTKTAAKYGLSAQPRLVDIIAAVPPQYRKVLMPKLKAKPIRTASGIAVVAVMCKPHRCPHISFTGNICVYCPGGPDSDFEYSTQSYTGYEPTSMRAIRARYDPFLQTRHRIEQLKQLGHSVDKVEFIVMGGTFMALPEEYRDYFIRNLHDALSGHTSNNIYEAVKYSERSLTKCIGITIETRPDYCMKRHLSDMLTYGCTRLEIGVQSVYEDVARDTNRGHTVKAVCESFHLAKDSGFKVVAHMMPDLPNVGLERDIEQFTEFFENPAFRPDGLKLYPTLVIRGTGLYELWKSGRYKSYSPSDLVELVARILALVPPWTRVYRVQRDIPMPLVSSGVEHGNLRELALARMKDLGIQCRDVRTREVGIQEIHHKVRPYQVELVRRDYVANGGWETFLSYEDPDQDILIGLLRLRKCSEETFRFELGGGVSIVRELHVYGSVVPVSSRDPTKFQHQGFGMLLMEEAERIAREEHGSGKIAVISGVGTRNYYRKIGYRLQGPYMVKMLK
UniProt P05198, whole entry, looked up: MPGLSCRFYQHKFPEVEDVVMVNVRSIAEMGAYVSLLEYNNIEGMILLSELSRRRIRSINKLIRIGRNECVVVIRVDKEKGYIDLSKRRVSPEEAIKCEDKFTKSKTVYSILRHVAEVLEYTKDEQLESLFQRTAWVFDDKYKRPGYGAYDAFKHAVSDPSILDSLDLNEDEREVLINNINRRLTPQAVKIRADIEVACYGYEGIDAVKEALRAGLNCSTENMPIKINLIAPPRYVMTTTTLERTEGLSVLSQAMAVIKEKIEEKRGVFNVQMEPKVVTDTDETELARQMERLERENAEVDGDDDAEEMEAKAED
UniProt P57772: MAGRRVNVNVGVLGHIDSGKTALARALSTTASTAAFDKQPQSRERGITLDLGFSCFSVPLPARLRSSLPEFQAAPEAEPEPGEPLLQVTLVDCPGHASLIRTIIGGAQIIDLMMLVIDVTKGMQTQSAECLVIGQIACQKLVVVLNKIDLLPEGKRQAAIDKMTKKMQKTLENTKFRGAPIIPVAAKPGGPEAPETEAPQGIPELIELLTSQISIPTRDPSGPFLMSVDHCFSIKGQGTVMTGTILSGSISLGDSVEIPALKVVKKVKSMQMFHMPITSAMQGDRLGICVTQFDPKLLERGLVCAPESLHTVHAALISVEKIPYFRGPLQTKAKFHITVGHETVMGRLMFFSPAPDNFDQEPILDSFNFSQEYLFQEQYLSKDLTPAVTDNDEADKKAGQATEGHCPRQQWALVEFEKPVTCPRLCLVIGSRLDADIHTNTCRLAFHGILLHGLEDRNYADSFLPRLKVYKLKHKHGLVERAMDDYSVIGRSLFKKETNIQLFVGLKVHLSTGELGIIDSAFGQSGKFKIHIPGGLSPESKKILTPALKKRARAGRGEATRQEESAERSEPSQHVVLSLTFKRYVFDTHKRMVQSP
UniProt Q9NPA0: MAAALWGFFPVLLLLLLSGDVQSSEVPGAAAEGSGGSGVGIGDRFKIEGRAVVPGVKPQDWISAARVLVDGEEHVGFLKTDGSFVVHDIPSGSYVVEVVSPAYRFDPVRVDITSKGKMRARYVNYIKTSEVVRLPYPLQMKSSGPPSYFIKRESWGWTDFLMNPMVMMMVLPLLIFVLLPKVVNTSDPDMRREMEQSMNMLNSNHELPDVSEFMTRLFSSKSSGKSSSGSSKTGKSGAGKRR
UniProt Q6IA86: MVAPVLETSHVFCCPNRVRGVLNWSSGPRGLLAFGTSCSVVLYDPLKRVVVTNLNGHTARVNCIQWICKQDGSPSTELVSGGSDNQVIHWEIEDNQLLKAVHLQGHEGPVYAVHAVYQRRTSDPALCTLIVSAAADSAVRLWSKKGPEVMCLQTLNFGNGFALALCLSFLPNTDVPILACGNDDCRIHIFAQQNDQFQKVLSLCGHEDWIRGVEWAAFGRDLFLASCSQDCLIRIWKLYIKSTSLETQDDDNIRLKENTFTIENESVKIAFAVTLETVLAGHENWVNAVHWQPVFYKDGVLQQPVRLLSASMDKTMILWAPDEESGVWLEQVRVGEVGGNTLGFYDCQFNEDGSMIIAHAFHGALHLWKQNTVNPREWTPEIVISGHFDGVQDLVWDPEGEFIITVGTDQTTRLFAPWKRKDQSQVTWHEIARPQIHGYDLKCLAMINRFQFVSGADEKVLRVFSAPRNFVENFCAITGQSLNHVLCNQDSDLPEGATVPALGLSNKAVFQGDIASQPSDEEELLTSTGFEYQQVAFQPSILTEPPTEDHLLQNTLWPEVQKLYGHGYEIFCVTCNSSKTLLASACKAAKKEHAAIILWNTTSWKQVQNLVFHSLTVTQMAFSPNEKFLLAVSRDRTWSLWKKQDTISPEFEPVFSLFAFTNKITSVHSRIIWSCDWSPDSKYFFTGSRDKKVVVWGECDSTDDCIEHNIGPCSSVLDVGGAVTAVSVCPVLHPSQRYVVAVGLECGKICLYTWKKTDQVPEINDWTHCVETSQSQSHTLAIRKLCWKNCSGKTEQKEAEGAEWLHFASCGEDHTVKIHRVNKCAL
UniProt Q96EB1: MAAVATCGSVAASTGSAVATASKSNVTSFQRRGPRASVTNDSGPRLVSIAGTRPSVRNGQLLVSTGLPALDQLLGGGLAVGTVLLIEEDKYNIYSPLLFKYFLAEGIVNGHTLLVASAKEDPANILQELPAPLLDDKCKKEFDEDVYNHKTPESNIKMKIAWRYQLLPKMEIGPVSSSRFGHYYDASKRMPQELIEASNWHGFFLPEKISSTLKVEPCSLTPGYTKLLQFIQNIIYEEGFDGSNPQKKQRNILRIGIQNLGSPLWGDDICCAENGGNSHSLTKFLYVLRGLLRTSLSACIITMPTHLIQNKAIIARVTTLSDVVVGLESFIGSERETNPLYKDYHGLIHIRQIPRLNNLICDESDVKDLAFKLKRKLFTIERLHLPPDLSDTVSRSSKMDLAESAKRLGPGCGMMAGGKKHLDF
UniProt Q8IZ81: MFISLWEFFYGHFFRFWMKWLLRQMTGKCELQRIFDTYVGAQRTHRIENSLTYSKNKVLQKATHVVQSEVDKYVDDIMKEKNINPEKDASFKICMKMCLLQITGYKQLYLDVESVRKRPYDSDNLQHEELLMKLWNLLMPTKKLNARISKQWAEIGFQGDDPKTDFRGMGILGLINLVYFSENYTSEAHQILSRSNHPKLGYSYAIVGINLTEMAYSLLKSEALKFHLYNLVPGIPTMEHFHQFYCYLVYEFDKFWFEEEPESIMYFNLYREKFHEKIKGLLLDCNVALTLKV
UniProt Q8N766: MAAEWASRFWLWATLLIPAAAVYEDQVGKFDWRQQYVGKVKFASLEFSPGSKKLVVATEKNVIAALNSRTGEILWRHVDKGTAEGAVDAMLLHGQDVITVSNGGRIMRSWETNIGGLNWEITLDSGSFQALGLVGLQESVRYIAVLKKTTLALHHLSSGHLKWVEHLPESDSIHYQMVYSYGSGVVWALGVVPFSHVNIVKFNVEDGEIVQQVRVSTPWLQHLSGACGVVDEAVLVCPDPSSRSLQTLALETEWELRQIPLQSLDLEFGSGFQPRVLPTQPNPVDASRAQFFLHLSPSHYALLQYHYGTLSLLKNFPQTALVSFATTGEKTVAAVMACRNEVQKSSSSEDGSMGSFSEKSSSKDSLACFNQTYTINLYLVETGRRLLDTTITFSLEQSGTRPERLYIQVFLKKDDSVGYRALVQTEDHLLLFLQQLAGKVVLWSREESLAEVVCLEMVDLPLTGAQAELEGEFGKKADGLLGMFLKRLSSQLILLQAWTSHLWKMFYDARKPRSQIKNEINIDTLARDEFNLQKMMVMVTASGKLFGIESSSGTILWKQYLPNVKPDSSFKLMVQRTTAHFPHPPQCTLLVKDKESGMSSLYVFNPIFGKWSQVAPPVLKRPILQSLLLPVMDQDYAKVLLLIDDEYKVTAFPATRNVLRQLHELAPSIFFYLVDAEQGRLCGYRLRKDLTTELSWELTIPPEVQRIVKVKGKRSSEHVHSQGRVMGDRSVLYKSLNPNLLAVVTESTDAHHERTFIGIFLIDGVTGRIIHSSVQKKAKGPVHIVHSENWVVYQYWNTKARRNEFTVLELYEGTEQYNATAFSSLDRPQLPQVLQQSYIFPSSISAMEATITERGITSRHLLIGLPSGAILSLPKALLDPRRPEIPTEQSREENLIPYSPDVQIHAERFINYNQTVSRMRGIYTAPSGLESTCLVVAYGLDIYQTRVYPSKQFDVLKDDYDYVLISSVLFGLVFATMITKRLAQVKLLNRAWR
UniProt Q9BY44: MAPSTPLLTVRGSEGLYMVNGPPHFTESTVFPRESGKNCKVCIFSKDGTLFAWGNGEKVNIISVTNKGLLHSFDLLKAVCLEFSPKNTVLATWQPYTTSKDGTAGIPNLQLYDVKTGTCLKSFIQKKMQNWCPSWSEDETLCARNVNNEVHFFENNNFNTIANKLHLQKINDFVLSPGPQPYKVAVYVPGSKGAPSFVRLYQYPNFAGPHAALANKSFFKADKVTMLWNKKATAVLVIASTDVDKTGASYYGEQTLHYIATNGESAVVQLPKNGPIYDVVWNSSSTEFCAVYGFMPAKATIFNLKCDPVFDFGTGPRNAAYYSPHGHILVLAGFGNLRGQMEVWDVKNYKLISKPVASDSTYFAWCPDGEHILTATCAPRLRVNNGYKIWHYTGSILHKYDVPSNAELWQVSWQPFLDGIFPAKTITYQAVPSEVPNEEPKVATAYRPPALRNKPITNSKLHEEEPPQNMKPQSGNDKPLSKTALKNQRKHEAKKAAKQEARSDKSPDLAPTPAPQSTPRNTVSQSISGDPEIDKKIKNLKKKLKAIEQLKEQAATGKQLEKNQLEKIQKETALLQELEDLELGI

Experiments:
Assay in all cases: log2 fold change, soluble protein after heating vs DMSO (PISA); higher = thermal stabilisation; K562 cells, 10 uM, 30 min; active = over 0.2 and 3.5 SD of the protein, either way, in both replicates (recomputed)
[1] = compound: CC1=C(C=C(C=C1)NC(=O)C2=CC(=CC=C2)C(C)(C)C#N)NC3=CC4=C(C=C3)N=CN(C4=O)C
How it was run: (§1)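 Soluble protein was quantified by TMTpro 16plex LC-MS/MS after channel sums were equalised. It was obtained as the supernatant after 21,000xg for 90 min from pooled aliquots of K562 cells (2×10^6 cells/mL, 10 μM compound, 30 min) heated for 3 min across 48°C-58°C and extracted in PBS with 0.5% NP-40 at 4°C. Thermal stability values are relative to control samples and come from duplicates. They are given as log2 fold changes.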

[2] = compound: CC1=C(C=C(C=C1)NC(=O)C2=CC(=CC=C2)N(C)C)NC(=O)C3=CC=C(C=C3)O
How it was run: as §1

[3] = compound: CC1=CC=C(C=C1)SC2=C3C=C(SC3=CN=C2)C(=O)N
How it was run: as §1

[4] = compound: CC1=NC(=CC=C1)C2=C(N=C(N2)C(C)(C)C)C3=CC4=NC=CN=C4C=C3
How it was run: as §1

Nexturastat A = compound: CCCCN(Cc1ccc(C(=O)NO)cc1)C(=O)Nc1ccccc1 [Nexturastat A]
How it was run: as §1

vemurafenib = compound: CCCS(=O)(=O)Nc1ccc(F)c(C(=O)c2c[nH]c3ncc(-c4ccc(Cl)cc4)cc23)c1F [vemurafenib]
How it was run: as §1

[5] = compound: CCCS(=O)(=O)Nc1ccc(F)c(C(=O)c2c[nH]c3ncc(Cl)cc23)c1F
How it was run: as §1

[6] = compound: CCCc1cc(C)[nH]c(=O)c1CNC(=O)c1cc(-c2ccnc(N3CCN(C)CC3)c2)cc2c1cnn2C(C)C
How it was run: as §1

givinostat = compound: CCN(CC)Cc1ccc2cc(COC(=O)Nc3ccc(C(=O)NO)cc3)ccc2c1 [givinostat]
How it was run: as §1

barasertib = compound: CCN(CCCOc1ccc2c(Nc3cc(CC(=O)Nc4cccc(F)c4)[nH]n3)ncnc2c1)CCOP(=O)(O)O [barasertib]
How it was run: as §1

[7] = compound: CC[C@@H]1C(=O)N(C)c2cnc(Nc3ccc(C(=O)NC4CCN(C)CC4)cc3OC)nc2N1C1CCCC1
How it was run: as §1

volasertib = compound: CC[C@@H]1C(=O)N(C)c2cnc(Nc3ccc(C(=O)N[C@H]4CC[C@H](N5CCN(CC6CC6)CC5)CC4)cc3OC)nc2N1C(C)C [volasertib]
How it was run: as §1

[8] = compound: CC[C@H](C)N1C=C(C2=C(C=C(C=C21)C3=CN=C(C=C3)N4CCNCC4)C(=O)NCC5=C(C=C(NC5=O)C)C)C
How it was run: as §1

epoxomicin = compound: CC[C@H](C)[C@@H](C(=O)N[C@@H]([C@@H](C)O)C(=O)N[C@@H](CC(C)C)C(=O)[C@]1(CO1)C)NC(=O)[C@H]([C@@H](C)CC)N(C)C(=O)C [epoxomicin]
How it was run: as §1

[9] = compound: CCn1c(C(=O)N(C2CC2)C2CC2)cc2c3c(ncn3C)c(Nc3cc(C)n(C)n3)nc21
How it was run: as §1

[10] = compound: CCn1cc(-c2ccnc3[nH]c(-c4cccc(CN(C)C)c4)cc23)c(-c2ccc(NC(=O)N(C)C)cc2)n1
How it was run: as §1

[11] = compound: CN(C)CC(=O)Nc1ccc2[nH]c(=O)c3ccccc3c2c1
How it was run: as §1

rosiglitazone = compound: CN(CCOC1=CC=C(C=C1)C[C@H]2C(=O)NC(=O)S2)C3=CC=CC=N3 (racemic) [rosiglitazone]
How it was run: as §1

[12] = compound: CN1C2=C(C3=C1C(=O)N(N=C3)CC4=CC(=CC=C4)N)SC(=C2)S(=O)C
How it was run: as §1

[13] = compound: CN1CCC(CNc2ccc3ncc(-c4cccc(OC(F)(F)F)c4)n3n2)CC1
How it was run: as §1

Measured: log2 fold change

EMC4 (UniProt Q5J8M3)
inactive: [1] 0.1 | [2] -0.023 | [3] -0.019 | [4] -0.021 | Nexturastat A 0.011 | vemurafenib 0.072 | [5] 0.02 | [6] 0.016 | givinostat -0.048 | barasertib 0.059 | [7] -0.029 | volasertib -0.032 | [8] -0.02 | epoxomicin 0.128 | [9] 0.02 | [10] -0.024 | [11] 0.037 | rosiglitazone 0.036 | [12] -0.062 | [13] 0.055

EML2 isoform 3 (UniProt O95834)
inactive: [1] 0 | [2] 0 | [3] -0.018 | [4] 0.034 | Nexturastat A -0.158 | vemurafenib -0.003 | [5] 0.006 | [6] -0.026 | givinostat -0.056 | barasertib 0 | [7] 0.018 | volasertib 0.037 | [8] 0.051 | epoxomicin 0.029 | [9] 0.038 | [10] -0.042 | [11] 0.012 | rosiglitazone 0.053 | [12] -0.086 | [13] -0.107

ENDOD1 (UniProt O94919)
inactive: [1] -0.026 | [2] 0.028 | [3] -0.021 | [4] -0.066 | Nexturastat A -0.047 | vemurafenib -0.05 | [5] -0.06 | [6] -0.022 | givinostat 0.005 | barasertib -0.013 | [7] 0.005 | volasertib 0.024 | [8] -0.02 | epoxomicin -0.013 | [9] 0.046 | [10] -0.03 | [11] 0.009 | rosiglitazone -0.015 | [12] -0.068 | [13] 0.001

EIF4EBP1 (UniProt Q13541)
inactive: [1] 0.013 | [2] 0.018 | [3] 0.024 | [4] -0.008 | Nexturastat A 0.123 | vemurafenib 0.228 | [5] 0 | [6] 0.074 | givinostat 0.002 | barasertib 0.042 | [7] 0.059 | volasertib 0.095 | [8] -0.053 | epoxomicin 0.043 | [9] 0.05 | [10] -0.051 | [11] 0.002 | rosiglitazone -0.015 | [12] 0.014 | [13] 0.059

EIF3L (UniProt Q9Y262)
inactive: [1] 0.022 | [2] 0.006 | [3] -0.001 | [4] 0.01 | Nexturastat A 0.07 | vemurafenib 0.052 | [5] 0.029 | [6] 0.005 | givinostat -0.02 | barasertib 0 | [7] -0.013 | volasertib -0.057 | [8] -0.008 | epoxomicin 0.051 | [9] 0.03 | [10] -0.046 | [11] -0.003 | rosiglitazone 0.044 | [12] -0.05 | [13] -0.057

EIF2B1 (UniProt Q14232)
inactive: [1] 0.012 | [2] -0.012 | [3] 0.091 | [4] 0.021 | Nexturastat A -0.06 | vemurafenib 0.02 | [5] 0.008 | [6] 0.027 | givinostat -0.012 | barasertib -0.015 | [7] 0.002 | volasertib 0.026 | [8] 0 | epoxomicin 0.044 | [9] 0.006 | [10] 0.003 | [11] 0.018 | rosiglitazone -0.008 | [12] -0.083 | [13] -0.022

ELP3 (UniProt Q9H9T3)
inactive: [1] 0.006 | [2] -0.016 | [3] 0.042 | [4] 0.013 | Nexturastat A -0.009 | vemurafenib -0.002 | [5] 0.007 | [6] -0.008 | givinostat -0.03 | barasertib 0.016 | [7] 0 | volasertib -0.054 | [8] 0.032 | epoxomicin 0.019 | [9] -0.035 | [10] -0.032 | [11] 0.013 | rosiglitazone -0.008 | [12] -0.005 | [13] -0.056

EIF2S1 (UniProt P05198)
inactive: [1] 0.003 | [2] -0.011 | [3] -0.018 | [4] -0.004 | Nexturastat A 0.047 | vemurafenib -0.029 | [5] -0.051 | [6] 0.01 | givinostat 0.011 | barasertib -0.022 | [7] 0.087 | volasertib 0.086 | [8] 0.011 | epoxomicin -0.096 | [9] -0.026 | [10] 0.073 | [11] -0.051 | rosiglitazone -0.018 | [12] 0.044 | [13] 0.07

EEFSEC (UniProt P57772)
inactive: [1] 0.063 | [2] 0.033 | [3] 0.027 | [4] -0.02 | Nexturastat A 0.122 | vemurafenib -0.039 | [5] 0.058 | [6] 0.046 | givinostat -0.081 | barasertib -0.064 | [7] -0.176 | volasertib -0.31 | [8] 0.015 | epoxomicin -0.04 | [9] -0.042 | [10] -0.112 | [11] 0.02 | rosiglitazone 0.021 | [12] 0.086 | [13] -0.107

Reprinted at random: two entries already listed.
EIF2B1 (UniProt Q14232)
inactive: [1] 0.012 | [2] -0.012 | [3] 0.091 | [4] 0.021 | Nexturastat A -0.06 | vemurafenib 0.02 | [5] 0.008 | [6] 0.027 | givinostat -0.012 | barasertib -0.015 | [7] 0.002 | volasertib 0.026 | [8] 0 | epoxomicin 0.044 | [9] 0.006 | [10] 0.003 | [11] 0.018 | rosiglitazone -0.008 | [12] -0.083 | [13] -0.022

EEFSEC (UniProt P57772)
inactive: [1] 0.063 | [2] 0.033 | [3] 0.027 | [4] -0.02 | Nexturastat A 0.122 | vemurafenib -0.039 | [5] 0.058 | [6] 0.046 | givinostat -0.081 | barasertib -0.064 | [7] -0.176 | volasertib -0.31 | [8] 0.015 | epoxomicin -0.04 | [9] -0.042 | [10] -0.112 | [11] 0.02 | rosiglitazone 0.021 | [12] 0.086 | [13] -0.107

Next records.

EIF4B (UniProt P23588)
inactive: [1] 0.02 | [2] 0.013 | [3] -0.009 | [4] 0.015 | Nexturastat A -0.008 | vemurafenib -0.043 | [5] -0.03 | [6] 0.011 | givinostat -0.03 | barasertib 0.008 | [7] 0.005 | volasertib 0.113 | [8] -0.038 | epoxomicin -0.004 | [9] 0 | [10] 0.041 | [11] -0.017 | rosiglitazone -0.001 | [12] 0.005 | [13] 0.035

EMC7 (UniProt Q9NPA0)
inactive: [1] 0 | [2] -0.03 | [3] -0.017 | [4] -0.018 | Nexturastat A -0.014 | vemurafenib -0.006 | [5] -0.012 | [6] -0.104 | givinostat 0.028 | barasertib 0.001 | [7] 0.05 | volasertib 0 | [8] 0.033 | epoxomicin 0.02 | [9] -0.005 | [10] -0.002 | [11] 0.004 | rosiglitazone 0.02 | [12] -0.037 | [13] -0.036

ELP2 isoform 6 (UniProt Q6IA86)
inactive: [1] -0.004 | [2] 0.007 | [3] 0.029 | [4] 0.012 | Nexturastat A -0.002 | vemurafenib -0.044 | [5] 0.014 | [6] -0.049 | givinostat -0.066 | barasertib -0.001 | [7] -0.004 | volasertib -0.02 | [8] -0.015 | epoxomicin -0.012 | [9] -0.024 | [10] -0.016 | [11] 0.008 | rosiglitazone -0.002 | [12] -0.036 | [13] -0.005

ELP4 isoform 3 (UniProt Q96EB1)
inactive: [1] -0.045 | [2] 0.048 | [3] 0.005 | [4] 0.049 | Nexturastat A -0.035 | vemurafenib 0.016 | [5] 0 | [6] -0.028 | givinostat -0.007 | barasertib -0.022 | [7] 0.055 | volasertib -0.039 | [8] -0.037 | epoxomicin 0.045 | [9] 0.008 | [10] -0.054 | [11] -0.023 | rosiglitazone -0.007 | [12] -0.047 | [13] 0.049

ELMOD2 (UniProt Q8IZ81)
inactive: [1] 0.003 | [2] 0.043 | [3] -0.009 | [4] 0.025 | Nexturastat A 0.047 | vemurafenib -0.008 | [5] -0.045 | [6] -0.01 | givinostat -0.01 | barasertib -0.015 | [7] -0.004 | volasertib -0.1 | [8] 0.005 | epoxomicin -0.028 | [9] 0.008 | [10] 0.001 | [11] 0.007 | rosiglitazone 0.082 | [12] -0.057 | [13] -0.002

EMC1 (UniProt Q8N766)
inactive: [1] 0.007 | [2] 0.022 | [3] 0.017 | [4] 0.026 | Nexturastat A -0.015 | vemurafenib 0.014 | [5] 0.009 | [6] -0.005 | givinostat 0.005 | barasertib -0.002 | [7] -0.001 | volasertib -0.004 | [8] 0.001 | epoxomicin 0.037 | [9] -0.017 | [10] 0.007 | [11] -0.024 | rosiglitazone 0 | [12] -0.011 | [13] 0.041

EIF2A (UniProt Q9BY44)
inactive: [1] 0.058 | [2] -0.022 | [3] -0.015 | [4] 0.003 | Nexturastat A 0.09 | vemurafenib -0.027 | [5] 0.011 | [6] 0.029 | givinostat 0.023 | barasertib -0.014 | [7] 0.029 | volasertib -0.059 | [8] 0.055 | epoxomicin -0.052 | [9] 0.018 | [10] 0.021 | [11] -0.049 | rosiglitazone -0.041 | [12] 0.027 | [13] 0.023
